Publication PMC8989877
These are yes or no findings as the source states them, for the method shown. Binding seen in cells or lysates may run through a third protein. Some binding calls cover weakened binding; strength is not graded here.

Chains of the proteins cited; added tags and fusions are not shown.
UniProt P28033: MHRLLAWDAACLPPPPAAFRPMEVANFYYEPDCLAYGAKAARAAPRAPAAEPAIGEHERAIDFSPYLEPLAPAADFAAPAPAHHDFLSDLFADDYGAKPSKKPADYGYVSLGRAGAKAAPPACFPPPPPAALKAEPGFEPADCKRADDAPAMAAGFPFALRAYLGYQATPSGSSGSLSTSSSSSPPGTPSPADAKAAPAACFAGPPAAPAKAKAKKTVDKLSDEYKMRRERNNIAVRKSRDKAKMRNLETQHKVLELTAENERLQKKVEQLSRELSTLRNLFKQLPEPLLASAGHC
UniProt Q04207: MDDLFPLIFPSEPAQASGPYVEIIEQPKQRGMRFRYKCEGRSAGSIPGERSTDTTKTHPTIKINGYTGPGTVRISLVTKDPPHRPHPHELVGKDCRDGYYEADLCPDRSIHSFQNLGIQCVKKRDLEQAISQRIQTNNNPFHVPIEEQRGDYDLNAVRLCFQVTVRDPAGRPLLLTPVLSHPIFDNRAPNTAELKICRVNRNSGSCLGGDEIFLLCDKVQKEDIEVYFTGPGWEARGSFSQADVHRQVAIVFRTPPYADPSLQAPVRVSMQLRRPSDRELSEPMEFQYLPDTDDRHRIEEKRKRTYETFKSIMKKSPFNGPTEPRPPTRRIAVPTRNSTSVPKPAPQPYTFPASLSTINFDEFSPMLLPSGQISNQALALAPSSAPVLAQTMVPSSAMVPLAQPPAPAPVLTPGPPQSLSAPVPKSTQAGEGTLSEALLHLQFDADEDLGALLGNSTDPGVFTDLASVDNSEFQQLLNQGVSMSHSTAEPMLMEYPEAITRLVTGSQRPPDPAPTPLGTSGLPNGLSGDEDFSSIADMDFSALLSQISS

Biological target: CEBPβ (CCAAT-enhancer-binding protein β), mouse brain (mouse (endogenous in APP/PS1 and C57BL/6 mouse brain)) (UniProt P28033)
Assay: co-IP; brain homogenates of APP/PS1 Tg and WT mice treated with vehicle or CA-SBEβCD NPs (10 or 30 mg/kg CA, 5 months); IP with anti-CEBPβ antibody or control IgG, 16 h at 4 °C, True-Blot IP beads; blot with anti-NFκB antibodies

**Q.** “NFκB p65 subunit, mouse brain (from UniProt Q04207 1-549)” was tested. Which binding did it give?
**A.** binds
